# From patent US20250152592A1, “PHARMACEUTICAL COMPOSITION COMPRISING ALLOPURINOL, FEBUXOSTAT OR PHARMACEUTICALLY ACCEPTABLE SALT THEREOF FOR PREVENTION OR TREATMENT OF CHRONIC KIDNEY DISEASE IN SUBJECT HAVING HIGH SERUM URIC ACID CONCENTRATION” (Indream Healthcare Inc., priority 2022, published 2025)
# Further values from the same series stand in other lists.
# System: patients with gout and a history of major cardiovascular diseases
# Experiment: eGFR over time by average serum uric acid concentration, analysis of clinical trial data
# Type: in vivo, human
# Protocol: In order to evaluate non-inferiority of febuxostat to allopurinol related to cardiovascular risk, a clinical trial was designed and proceeded.
# A multicenter, randomized, double-blind non-inferiority trial was performed. The details of the clinical trial design have been published previously. An independent data and safety monitoring committee with access to unblinded data monitored the clinical trial. The statistical analysis for the data and the safety monitoring committee was performed by an independent statistical group (WebbWrites).
# The patients were regarded as having a history of major cardiovascular diseases, if they had myocardial infarction, hospitalization for unstable angina, stroke, hospitalization for transient ischemic attack, peripheral vascular disease, or diabetes mellitus symptoms. All participants provided a prior informed consent form.
# The patients were randomly assigned so that they received febuxostat or allopurinol administered once a day in a double-blind manner. The randomization was stratified according to the estimated creatinine clearance at baseline (patient group having an estimated creatinine clearance ≥60 ml per minute vs patient group having an estimated creatinine clearance ≥30 and <60 ml per minute).
# The dose of allopurinol was modified according to a kidney function. The patients with the estimated creatinine clearance 60 ml or more per minute i) initially received allopurinol at a dose of 300 mg once a day, and the dose was increased in 100 mg increments monthly until the patient had the serum uric acid concentration of less than 6.0 mg per deciliter or the dosage of allopurinol was 600 mg once a day. The patient having the estimated creatinine clearance of 30 ml or more and less than 60 ml per minute initially received 200 mg of allopurinol, and then the dose was increased in 100 mg increments until the patient either had the serum uric acid concentration of less than 6.0 mg per deciliter or was receiving the allopurinol dose of 400 mg once daily.
# The dose of febuxostat was not modified according to the kidney function. The patients who were randomly assigned to receive febuxostat initially received 40 mg once a daily, and continued to receive the same dosage if the serum uric acid concentration was less than 6.0 mg per deciliter after 2 weeks of the treatment. If the serum uric acid concentration was higher than 6.0 mg per deciliter at 2nd week visit, the dose of febuxostat was increased to 80 mg once daily for the remainder of the trial.
# During the period, the administration of a double-blind and double-dummy trial medications was guided by an interactive voice-response system which was a procedure to prevent unblinding for the patients whose dose was not adjusted. After completing dose adjustment, the urate level was concealed from the investigators, and the treatment was managed throughout the trial using the interactive voice-response system.
# Outpatient visits were conducted according to the following schedule: during screening and randomization, and at 2, 4, 6, 8, 10, 12, and 24 weeks after the randomization, and every 6 months during the subsequent years of the trial. The patients with reduced kidney function or, the patients aged 65 years or older at randomization were visited at 9 and 15 months for monitoring the serum chemical profile. If the patient agreed to be monitored, but would not return for study visit, telephone contact was made, but such method was not preferred or recommended.
# In order to confirm the effect of allopurinol and febuxostat on the kidney disease, the data obtained in the clinical trial described above was analyzed.
smiles,measurement,setting,value
O=c1ncnc2[nH][nH]cc1-2 [allopurinol],eGFR Mean (95% CI),"allopurinol group, No congestive cardiac failure history, Average UA <6, Month 6",67.53 (66.44-68.62) ml/min/1.73 m^2
same,eGFR Mean (95% CI),"allopurinol group, No congestive cardiac failure history, Average UA ≥6, Month 3",66.56 (64.90-68.23) ml/min/1.73 m^2
same,eGFR Mean (95% CI),"allopurinol group, No congestive cardiac failure history, Average UA ≥6, Month 6",65.99 (64.33-67.66) ml/min/1.73 m^2
Cc1nc(-c2ccc(OCC(C)C)c(C#N)c2)sc1C(=O)O [febuxostat],eGFR Mean (95% CI),"febuxostat group, Baseline UA≥ 8, Average UA <6, Month 6",61.95 (60.74-63.16) ml/min/1.73 m^2
same,eGFR Mean (95% CI),"febuxostat group, Baseline UA≥ 8, Average UA <6, Month 12",63.09 (61.87-64.32) ml/min/1.73 m^2
same,eGFR Mean (95% CI),"febuxostat group, Baseline UA≥ 8, Average UA ≥6, Month 6",62.56 (60.65-64.47) ml/min/1.73 m^2
same,eGFR Mean (95% CI),"febuxostat group, Baseline UA≥ 8, Average UA ≥6, Month 12",62.75 (60.66-64.83) ml/min/1.73 m^2
same,eGFR Mean (95% CI),"febuxostat group, Gout ≥10 (years), Average UA <6, Baseline",65.79 (64.44-67.14) ml/min/1.73 m^2
same,eGFR Mean (95% CI),"febuxostat group, Gout ≥10 (years), Average UA <6, Month 3",65.15 (63.78-66.52) ml/min/1.73 m^2
same,eGFR Mean (95% CI),"febuxostat group, Gout ≥10 (years), Average UA <6, Month 6",65.11 (63.69-66.53) ml/min/1.73 m^2
same,eGFR Mean (95% CI),"febuxostat group, Gout ≥10 (years), Average UA <6, Month 12",66.55 (65.13-67.97) ml/min/1.73 m^2
same,eGFR Mean (95% CI),"febuxostat group, Gout ≥10 (years), Average UA <6, Month 18",66.31 (64.75-67.87) ml/min/1.73 m^2
same,eGFR Mean (95% CI),"febuxostat group, Gout ≥10 (years), Average UA <6, Month 24",66.05 (64.32-67.77) ml/min/1.73 m^2
same,eGFR Mean (95% CI),"febuxostat group, Gout ≥10 (years), Average UA <6, Month 30",66.94 (65.12-68.76) ml/min/1.73 m^2
same,eGFR Mean (95% CI),"febuxostat group, Gout ≥10 (years), Average UA <6, Month 36",66.58 (64.66-68.49) ml/min/1.73 m^2
same,eGFR Mean (95% CI),"febuxostat group, Gout ≥10 (years), Average UA <6, Month 42",67.99 (65.86-70.12) ml/min/1.73 m^2
same,eGFR Mean (95% CI),"febuxostat group, Gout ≥10 (years), Average UA <6, Month 48",69.86 (67.58-72.14) ml/min/1.73 m^2
same,eGFR Mean (95% CI),"febuxostat group, Gout ≥10 (years), Average UA <6, Month 54",70.12 (67.50-72.74) ml/min/1.73 m^2
same,eGFR Mean (95% CI),"febuxostat group, Gout ≥10 (years), Average UA <6, Month 60",71.57 (68.65-74.50) ml/min/1.73 m^2
same,eGFR Mean (95% CI),"febuxostat group, Gout ≥10 (years), Average UA <6, Week 2",65.90 (64.51-67.29) ml/min/1.73 m^2
same,eGFR Mean (95% CI),"febuxostat group, Gout ≥10 (years), Average UA ≥6, Baseline",66.85 (64.41-69.28) ml/min/1.73 m^2
same,eGFR Mean (95% CI),"febuxostat group, Gout ≥10 (years), Average UA ≥6, Month 3",65.53 (63.05-68.01) ml/min/1.73 m^2
same,eGFR Mean (95% CI),"febuxostat group, Gout ≥10 (years), Average UA ≥6, Month 6",64.92 (62.53-67.31) ml/min/1.73 m^2
same,eGFR Mean (95% CI),"febuxostat group, Gout ≥10 (years), Average UA ≥6, Month 12",65.04 (62.45-67.64) ml/min/1.73 m^2
same,eGFR Mean (95% CI),"febuxostat group, Gout ≥10 (years), Average UA ≥6, Month 18",63.78 (60.85-66.70) ml/min/1.73 m^2
same,eGFR Mean (95% CI),"febuxostat group, Gout ≥10 (years), Average UA ≥6, Month 24",63.79 (60.66-66.92) ml/min/1.73 m^2
same,eGFR Mean (95% CI),"febuxostat group, Gout ≥10 (years), Average UA ≥6, Month 30",63.63 (60.01-67.26) ml/min/1.73 m^2
same,eGFR Mean (95% CI),"febuxostat group, Gout ≥10 (years), Average UA ≥6, Month 36",64.38 (60.10-68.65) ml/min/1.73 m^2
same,eGFR Mean (95% CI),"febuxostat group, Gout ≥10 (years), Average UA ≥6, Month 42",63.50 (58.94-68.06) ml/min/1.73 m^2
same,eGFR Mean (95% CI),"febuxostat group, Gout ≥10 (years), Average UA ≥6, Month 48",65.40 (60.50-70.31) ml/min/1.73 m^2
same,eGFR Mean (95% CI),"febuxostat group, Gout ≥10 (years), Average UA ≥6, Month 54",63.22 (56.77-69.67) ml/min/1.73 m^2
same,eGFR Mean (95% CI),"febuxostat group, Gout ≥10 (years), Average UA ≥6, Month 60",67.46 (59.11-75.80) ml/min/1.73 m^2
same,eGFR Mean (95% CI),"febuxostat group, Gout ≥10 (years), Average UA ≥6, Week 2",65.72 (63.06-68.37) ml/min/1.73 m^2
